Assay results: publication PMC6925222
No constants are given. Whether binding was seen depends on the method and setting. Some entries that bind do so weakly or less than the wild type.

Target: T1, AIM2 (mouse (endogenous in BMDMs)), Q91VJ1
T1 chain: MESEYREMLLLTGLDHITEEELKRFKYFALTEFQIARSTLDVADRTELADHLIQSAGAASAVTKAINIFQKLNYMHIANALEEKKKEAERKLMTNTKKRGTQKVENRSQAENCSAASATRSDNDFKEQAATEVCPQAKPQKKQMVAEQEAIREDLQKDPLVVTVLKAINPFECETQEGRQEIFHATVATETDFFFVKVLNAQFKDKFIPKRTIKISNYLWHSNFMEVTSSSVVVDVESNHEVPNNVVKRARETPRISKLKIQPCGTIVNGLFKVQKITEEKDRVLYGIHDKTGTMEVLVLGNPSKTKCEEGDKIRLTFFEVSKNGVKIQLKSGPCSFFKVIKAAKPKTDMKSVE
Assay: nonreducing SDS-PAGE of cell lysates with immunoblot; lysates of BMDMs exposed to 8 Gy irradiation, with or without Andrographolide; separated by nonreducing SDS-PAGE and detected with antibodies against AIM2
Settings: remark: other sources report otherwise

- binding: binds
B1: AIM2, Q91VJ1 1-354 (protein)
chain: MESEYREMLLLTGLDHITEEELKRFKYFALTEFQIARSTLDVADRTELADHLIQSAGAASAVTKAINIFQKLNYMHIANALEEKKKEAERKLMTNTKKRGTQKVENRSQAENCSAASATRSDNDFKEQAATEVCPQAKPQKKQMVAEQEAIREDLQKDPLVVTVLKAINPFECETQEGRQEIFHATVATETDFFFVKVLNAQFKDKFIPKRTIKISNYLWHSNFMEVTSSSVVVDVESNHEVPNNVVKRARETPRISKLKIQPCGTIVNGLFKVQKITEEKDRVLYGIHDKTGTMEVLVLGNPSKTKCEEGDKIRLTFFEVSKNGVKIQLKSGPCSFFKVIKAAKPKTDMKSVE
